Measured values reported in PubChem BioAssay AID232 (DTP/NCI, 2004).
The list does not hold the whole screen: it gathers some chemical classes. Other doses and runs of a compound may be missing. T/C is the treated group as % of the vehicle group. For survival time, this PubChem deposit counts one and a half times the control or more as active, and values a quarter to a half above the control carry no call in these data; other NCI protocols may use other cut-offs. Some T/C values are marked as having no survivor count here; that says nothing about deaths at the dose. Schedules are NCI's codes, read here as Q, the interval in days (D) or hours (H), X, the number of doses. Some doses were run more than once; their values stand side by side, smallest first. Signs of the kind (2×) give the number of equal values in this list.

Test system: Gardner 6C3HED lymphosarcoma ip, C3AKF1 mice, survival T/C
Experiment: NCI In Vivo Anticancer Drug Screen. Data for tumor model Lymphosarcoma Gardner 6C3HED (intraperitoneal) in C3AKF1 (CHKRF1) mice
Conditions: T/C endpoint: survival time, mean or median, schedule: Q01DX010 (ip), vehicle: saline, higher T/C = longer survival
Description: The antitumor activity of compounds was measured in mice bearing transplantable tumors. Survival or tumor size were measured and the results are expressed as the measurement made in the treated group (T) divided by the measurement made in the vehicle treated control group (C). The tumor model used in this assay is Lymphosarcoma Gardner 6C3HED (intraperitoneal) in C3AKF1 (CHKRF1) mice

## CN(CCCl)CCCl
dose: 0.06 mg/kg/injection
  T/C: 108 [survivor count not shown], 120 [survivor count not shown] (2×), 131 % of control [survivor count not shown]
dose: 0.13 mg/kg/injection
  T/C: 91 [survivor count not shown], 120 [survivor count not shown] (2×), 150 [survivor count not shown], 172 % of control [survivor count not shown]
dose: 0.25 mg/kg/injection
  T/C: 90 [survivor count not shown], 150 [survivor count not shown] (2×), 170 [survivor count not shown], 175 % of control [survivor count not shown]
dose: 0.5 mg/kg/injection
  T/C: 179 [survivor count not shown], 181 [survivor count not shown], 195 [survivor count not shown], 200 % of control [survivor count not shown]
